These are yes or no findings as the source states them, for the method shown. In cells and extracts the contact can be indirect. Here binding means that the protein was enriched with, or labelled near, the bait; the list need not be complete. For some assays here: Sequences can lack the tags named with a protein.

The chains behind the UniProt entries cited, without tags or fusion partners. Where a name states a change or a piece, a line headed by the entry shows the natural chain unless it says otherwise.
UniProt Q9FNY0: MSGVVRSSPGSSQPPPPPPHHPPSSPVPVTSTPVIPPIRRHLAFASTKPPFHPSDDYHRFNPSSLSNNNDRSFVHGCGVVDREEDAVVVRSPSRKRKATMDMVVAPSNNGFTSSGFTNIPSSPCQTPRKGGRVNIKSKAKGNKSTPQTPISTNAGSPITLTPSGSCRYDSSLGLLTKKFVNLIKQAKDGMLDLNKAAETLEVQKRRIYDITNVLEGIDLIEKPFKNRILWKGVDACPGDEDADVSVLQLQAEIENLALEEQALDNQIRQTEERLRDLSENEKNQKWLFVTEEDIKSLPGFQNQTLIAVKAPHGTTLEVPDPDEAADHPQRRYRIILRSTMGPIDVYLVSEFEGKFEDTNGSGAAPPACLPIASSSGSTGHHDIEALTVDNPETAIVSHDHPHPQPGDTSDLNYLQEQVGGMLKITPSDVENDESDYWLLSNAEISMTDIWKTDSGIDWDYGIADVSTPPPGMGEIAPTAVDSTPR
UniProt Q9FV71: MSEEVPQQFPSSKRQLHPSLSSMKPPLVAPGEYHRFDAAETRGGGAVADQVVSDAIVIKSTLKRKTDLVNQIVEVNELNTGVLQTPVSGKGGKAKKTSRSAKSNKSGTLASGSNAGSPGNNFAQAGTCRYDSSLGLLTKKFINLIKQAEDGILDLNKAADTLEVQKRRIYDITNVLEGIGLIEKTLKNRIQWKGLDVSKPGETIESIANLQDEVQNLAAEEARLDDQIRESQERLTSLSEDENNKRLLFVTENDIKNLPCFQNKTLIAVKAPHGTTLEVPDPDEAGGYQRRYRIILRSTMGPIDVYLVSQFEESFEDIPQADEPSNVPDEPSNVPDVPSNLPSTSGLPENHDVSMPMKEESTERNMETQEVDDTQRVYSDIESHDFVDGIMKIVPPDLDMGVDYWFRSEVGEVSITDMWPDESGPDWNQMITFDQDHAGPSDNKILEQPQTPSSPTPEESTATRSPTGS
UniProt F4J4R5: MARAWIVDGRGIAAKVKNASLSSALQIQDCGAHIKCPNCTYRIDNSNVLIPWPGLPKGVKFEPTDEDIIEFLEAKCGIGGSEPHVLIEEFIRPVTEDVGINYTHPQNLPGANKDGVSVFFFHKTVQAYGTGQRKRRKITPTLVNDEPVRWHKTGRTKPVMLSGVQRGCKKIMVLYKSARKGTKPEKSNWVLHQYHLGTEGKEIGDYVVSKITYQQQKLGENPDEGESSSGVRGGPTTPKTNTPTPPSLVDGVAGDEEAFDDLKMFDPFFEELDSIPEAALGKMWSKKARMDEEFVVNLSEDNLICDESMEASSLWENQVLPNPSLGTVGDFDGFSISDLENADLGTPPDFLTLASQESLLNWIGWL

The values below come from article PMC8500230.

Test [1] deals with T1, DPA-GFP (Arabidopsis thaliana) (UniProt Q9FNY3).
T1 sequence: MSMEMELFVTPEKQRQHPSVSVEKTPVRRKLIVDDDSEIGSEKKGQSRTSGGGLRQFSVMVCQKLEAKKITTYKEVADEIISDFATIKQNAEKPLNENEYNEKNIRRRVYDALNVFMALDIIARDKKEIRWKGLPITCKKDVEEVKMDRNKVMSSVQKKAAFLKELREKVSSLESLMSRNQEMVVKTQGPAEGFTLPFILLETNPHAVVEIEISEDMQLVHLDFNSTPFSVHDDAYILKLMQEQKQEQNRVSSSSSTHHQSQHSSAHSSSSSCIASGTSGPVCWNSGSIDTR
The test can be described thus: affinity purification with mass spectrometry; FP-IP: anti-GFP antibody on magnetic beads, total protein extracts (4 mg/IP) of Arabidopsis seedlings expressing the GFP- or CFP-tagged bait under its own promoter; GFP alone as control; standard conditions, various growth regimes (meta-analysis of 182 IPs), with or without 50 uM cisplatin for 24 h; label-free LC-MS/MS.

Test [2] has as its target T2, E2FC-GFP (Arabidopsis thaliana) (UniProt Q9FV70).
T2 sequence: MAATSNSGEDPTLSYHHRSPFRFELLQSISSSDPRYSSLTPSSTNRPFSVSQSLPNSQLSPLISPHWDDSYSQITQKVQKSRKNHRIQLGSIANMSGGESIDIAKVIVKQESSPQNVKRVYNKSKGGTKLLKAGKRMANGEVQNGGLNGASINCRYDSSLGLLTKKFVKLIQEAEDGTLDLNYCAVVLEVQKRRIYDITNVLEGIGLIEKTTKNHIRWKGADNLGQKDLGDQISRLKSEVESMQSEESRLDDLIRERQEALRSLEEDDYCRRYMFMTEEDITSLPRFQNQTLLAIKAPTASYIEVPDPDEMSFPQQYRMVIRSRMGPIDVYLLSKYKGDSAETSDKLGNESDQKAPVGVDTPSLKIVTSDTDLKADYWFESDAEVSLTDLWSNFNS
The description is as above.

Test [3] concerns the target E2FA-GFP (Arabidopsis thaliana) (UniProt Q9FNY0). The description is as above.
Test [4] has as its target E2FB-GFP (Arabidopsis thaliana) (UniProt Q9FV71). The test is described as above.
Test [5] addresses C-terminally tagged NAC044 (TAP bait) (Arabidopsis thaliana) (UniProt F4J4R5). The test can be described thus: affinity purification with mass spectrometry; tandem affinity purification (GS^rhino tag) from Arabidopsis PSB-D cell suspension cultures expressing the tagged bait under the 35S promoter; 30 uM cisplatin added 16 h before harvest; 100 mg total protein extract; on-bead digest, LC-MS/MS; in ….

Test [6] deals with T3, N-terminally tagged TCX5 (TAP bait) (Arabidopsis thaliana) (UniProt Q9SZD1).
T3 sequence: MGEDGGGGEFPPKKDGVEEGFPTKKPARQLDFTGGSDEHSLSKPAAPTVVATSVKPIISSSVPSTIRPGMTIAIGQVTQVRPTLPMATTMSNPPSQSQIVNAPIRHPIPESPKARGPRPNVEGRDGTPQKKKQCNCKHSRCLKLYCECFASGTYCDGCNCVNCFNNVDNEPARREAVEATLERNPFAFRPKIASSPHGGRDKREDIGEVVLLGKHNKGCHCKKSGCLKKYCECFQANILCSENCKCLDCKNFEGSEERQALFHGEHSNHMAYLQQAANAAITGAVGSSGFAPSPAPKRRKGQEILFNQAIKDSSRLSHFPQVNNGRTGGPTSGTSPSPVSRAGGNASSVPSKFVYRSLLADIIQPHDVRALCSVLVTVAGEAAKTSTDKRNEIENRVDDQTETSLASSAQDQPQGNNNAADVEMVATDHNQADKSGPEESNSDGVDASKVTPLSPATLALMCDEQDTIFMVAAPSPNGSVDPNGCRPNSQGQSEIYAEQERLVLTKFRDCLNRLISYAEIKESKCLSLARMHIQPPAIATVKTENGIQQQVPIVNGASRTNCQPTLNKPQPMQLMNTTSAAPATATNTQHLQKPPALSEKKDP
The test is described as above.

In test [7] the target is N-terminally tagged LIN52A (TAP bait) (Arabidopsis thaliana). The test is described as above.
Test [8] has as its target T4, C-terminally tagged TCX5 (TAP bait) (Arabidopsis thaliana) (UniProt Q9SZD1).
T4 sequence: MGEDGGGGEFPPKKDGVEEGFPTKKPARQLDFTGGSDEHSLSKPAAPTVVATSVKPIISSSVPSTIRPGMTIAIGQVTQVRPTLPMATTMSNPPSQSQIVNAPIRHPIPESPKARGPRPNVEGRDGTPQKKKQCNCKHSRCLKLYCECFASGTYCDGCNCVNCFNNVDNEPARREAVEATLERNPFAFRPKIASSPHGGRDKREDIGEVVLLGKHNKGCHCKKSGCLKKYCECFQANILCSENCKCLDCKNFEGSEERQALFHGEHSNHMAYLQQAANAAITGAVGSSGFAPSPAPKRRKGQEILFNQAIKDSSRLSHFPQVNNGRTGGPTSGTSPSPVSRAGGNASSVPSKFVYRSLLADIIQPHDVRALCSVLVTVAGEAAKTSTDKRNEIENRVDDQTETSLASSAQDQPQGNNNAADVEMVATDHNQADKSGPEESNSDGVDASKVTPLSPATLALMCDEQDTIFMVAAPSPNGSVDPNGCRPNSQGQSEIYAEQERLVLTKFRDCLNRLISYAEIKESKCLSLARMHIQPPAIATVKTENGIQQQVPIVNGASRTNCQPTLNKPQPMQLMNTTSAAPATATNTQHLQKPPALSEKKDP
The test is described as above.

B1: RETINOBLASTOMA-RELATED 1 (RBR1) (protein, UniProt Q9LKZ3 1-1013)
chain: MEEVQPPVTPPIEPNGKRSEASLLDICEKVLSLDGSTCDEALKLFTETKRILSASMSNIGSGTREEVERFWFAFILYSVKRLSVRKEADGLSVSGDNEFNLCQILRALKLNIVDFFKELPQFVVKAGSVLGELYGADWENRLQAKEVQANFVHLSLLSKYYKRGFREFFLTYDANAEKNSANSSTYLLDSYRFGWLLFLALRNHAFSRFKDLVTCSNGVVSILAILIIHVPCRFRNFSIQDSSRFVKKGDKGVDLVASLCKIYDASEDELRIVIDKANNLVETILKKKPSPASECQTDKLDNIDPDGLTYFEDLLEETSISTSLITLEKDYYDGKGELDERVFINEEDSLLGSGSLSAGAVNITGVKRKIDALSSPARTFISPLSPHKSPAAKTNGISGATKLAATPVSTAMTTAKWLRTVISPLLPKPSPGLEHFLKSCDRDITNDVTRRAHIILEAIFPNSSLGAQCGGGSLQAVDLMDDIWAEQRRLEACKLYYRVLEAMCKAEAQILHANNLNSLLTNERFHRCMLACSAELVLATHKTITMLFPAVLERTGITAFDLSKVIESFIRHEDSLPRELRRHLNSLEERLLESMVWEKGSSMYNSLIVARPSLALEINQLGLLAEPMPSLDAIAALINFSDGANHASSVQKHETCPGQNGGIRSPKRLCTDYRSILVERNSFTSPVKDRLLALGNVKSKMLPPPLQSAFASPTRPNPGGGGETCAETGINIFFTKINKLAAVRINGMVERLQLSQQIRESVYCFFQHVLAQRTSLLFSRHIDQIILCCFYGVAKISQMSLTFREIIYNYRKQPQCKPLVFRSVYVDALQCRRQGRIGPDHVDIITFYNEIFIPAVKPLLVELGPVRNDRAVEANNKPEGQCPGSPKVSVFPSVPDMSPKKVSAVHNVYVSPLRGSKMDALISHSTKSYYACVGESTHAYQSPSKDLSAINNRLNNSSSNRKRTLNFDAEAGMVSDSMVANSLNLQNQNQNQNGSDASSSGGAAPLKTEPTDS
As for B1, the binding entry in test [1] is “binds”; in test [2], “binds”; in test [3], “binds”; in test [4] it was “binds”; in test [5], “binds weakly”; in test [6] it was “binds”. For the same molecule, the binding entry in test [7] and in test [8] was “binds” each time.
